# Earlier results, collected in US20090305993A1, “METHODS AND COMPOSITION FOR THE TREATMENT OF GASTROINTESTINAL DISORDERS” (IRONWOOD PHARMACEUTICALS, INC., priority 2006, published 2009).
# Protein sequences, listed by entry. Tags and fused reporters are not part of them. Lines headed by an entry give the natural chain unless they say otherwise; changes in a name come on top. Residues count along the entry.
# UniProt P25092, 24-1073: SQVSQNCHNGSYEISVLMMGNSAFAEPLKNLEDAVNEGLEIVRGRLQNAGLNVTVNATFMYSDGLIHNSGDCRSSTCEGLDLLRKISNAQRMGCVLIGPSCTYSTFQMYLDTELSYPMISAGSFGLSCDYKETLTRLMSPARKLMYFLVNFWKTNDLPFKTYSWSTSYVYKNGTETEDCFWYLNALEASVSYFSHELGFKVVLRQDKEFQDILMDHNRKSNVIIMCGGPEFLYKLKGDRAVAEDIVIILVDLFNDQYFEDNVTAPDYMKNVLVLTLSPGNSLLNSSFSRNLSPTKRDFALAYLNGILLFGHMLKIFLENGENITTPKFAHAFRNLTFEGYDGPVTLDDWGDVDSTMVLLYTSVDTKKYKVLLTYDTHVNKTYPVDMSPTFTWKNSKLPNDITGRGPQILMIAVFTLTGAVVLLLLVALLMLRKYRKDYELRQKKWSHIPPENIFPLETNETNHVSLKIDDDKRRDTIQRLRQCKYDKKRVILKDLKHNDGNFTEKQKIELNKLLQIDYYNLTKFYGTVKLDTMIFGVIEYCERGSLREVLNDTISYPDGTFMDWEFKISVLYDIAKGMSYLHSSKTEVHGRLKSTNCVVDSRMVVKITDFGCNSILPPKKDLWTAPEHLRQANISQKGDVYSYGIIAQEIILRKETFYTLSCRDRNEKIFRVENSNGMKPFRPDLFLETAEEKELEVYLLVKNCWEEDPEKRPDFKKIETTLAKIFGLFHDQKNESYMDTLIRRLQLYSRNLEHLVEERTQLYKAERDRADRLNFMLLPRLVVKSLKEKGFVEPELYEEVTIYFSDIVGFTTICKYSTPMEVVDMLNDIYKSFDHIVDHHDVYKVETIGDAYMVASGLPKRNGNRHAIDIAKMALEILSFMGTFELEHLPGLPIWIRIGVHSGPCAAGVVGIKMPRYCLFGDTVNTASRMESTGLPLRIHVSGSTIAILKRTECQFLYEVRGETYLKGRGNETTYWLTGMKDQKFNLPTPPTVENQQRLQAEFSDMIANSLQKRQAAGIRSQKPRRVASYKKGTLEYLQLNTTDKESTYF
# UniProt Q02747: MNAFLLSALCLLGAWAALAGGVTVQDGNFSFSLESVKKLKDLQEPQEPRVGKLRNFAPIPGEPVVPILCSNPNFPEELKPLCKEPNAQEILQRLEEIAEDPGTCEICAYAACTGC
# UniProt Q16661: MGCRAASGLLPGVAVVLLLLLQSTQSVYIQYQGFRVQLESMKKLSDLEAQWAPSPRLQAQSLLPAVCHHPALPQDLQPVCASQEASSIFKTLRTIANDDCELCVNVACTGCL
# Some results were stated once for a whole list of compounds, not compound by compound. Some ranges recur; such a range may be that of the whole group of compounds.
# Target: GC-C receptor (Homo sapiens, UniProt P25092)
# Details: reviewed in Gianella 1995; cited from earlier work
row,Substance,fold less potent than bacterially derived ST peptides
1,"guanylin (PGTCEICAYAACTGC; Guanylin; UniProt Q02747 101-115, looked up)",10-100 fold
2,lymphoguanylin,10-100 fold
3,"uroguanylin (NDDCELCVNVACTGCL; Uroguanylin; UniProt Q16661 97-112, looked up)",10-100 fold
